In the supplement of paper PMC11006884:
This is a selection; strong and weak results do not stand in their true shares.

By UniProt entry, the sequences of proteins in these tests, tags left out. Where a name states a change or a piece, a line headed by the entry shows the natural chain unless it says otherwise.
UniProt Q5F1R6: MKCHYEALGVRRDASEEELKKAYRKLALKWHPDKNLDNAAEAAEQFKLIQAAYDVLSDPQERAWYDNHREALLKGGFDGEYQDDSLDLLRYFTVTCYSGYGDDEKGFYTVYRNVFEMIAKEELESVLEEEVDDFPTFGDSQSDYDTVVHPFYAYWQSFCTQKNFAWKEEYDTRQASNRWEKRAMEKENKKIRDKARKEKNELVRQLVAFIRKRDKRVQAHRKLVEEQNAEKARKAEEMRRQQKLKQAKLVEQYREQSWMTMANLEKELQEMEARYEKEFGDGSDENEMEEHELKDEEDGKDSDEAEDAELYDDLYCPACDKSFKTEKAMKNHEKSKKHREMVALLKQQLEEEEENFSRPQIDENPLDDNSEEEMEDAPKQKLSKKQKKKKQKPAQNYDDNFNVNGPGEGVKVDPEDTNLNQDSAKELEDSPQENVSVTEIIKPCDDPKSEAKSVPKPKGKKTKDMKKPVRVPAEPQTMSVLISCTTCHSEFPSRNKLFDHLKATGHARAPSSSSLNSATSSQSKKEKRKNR
UniProt Q6PI26: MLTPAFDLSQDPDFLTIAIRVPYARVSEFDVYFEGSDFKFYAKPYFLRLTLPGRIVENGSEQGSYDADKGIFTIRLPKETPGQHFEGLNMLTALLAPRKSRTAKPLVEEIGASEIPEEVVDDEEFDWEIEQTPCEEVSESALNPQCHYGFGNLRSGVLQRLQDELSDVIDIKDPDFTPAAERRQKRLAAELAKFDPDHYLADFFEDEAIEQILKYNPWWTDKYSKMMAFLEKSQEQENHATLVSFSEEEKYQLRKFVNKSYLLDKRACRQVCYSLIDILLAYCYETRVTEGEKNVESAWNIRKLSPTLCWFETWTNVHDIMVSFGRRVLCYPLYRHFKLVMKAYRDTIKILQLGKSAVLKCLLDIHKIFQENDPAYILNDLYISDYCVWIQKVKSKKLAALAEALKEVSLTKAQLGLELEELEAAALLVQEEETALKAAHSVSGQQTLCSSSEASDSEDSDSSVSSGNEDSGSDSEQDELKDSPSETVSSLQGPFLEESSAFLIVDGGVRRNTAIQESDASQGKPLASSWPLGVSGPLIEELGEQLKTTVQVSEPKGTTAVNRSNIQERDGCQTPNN
UniProt Q5SQN1: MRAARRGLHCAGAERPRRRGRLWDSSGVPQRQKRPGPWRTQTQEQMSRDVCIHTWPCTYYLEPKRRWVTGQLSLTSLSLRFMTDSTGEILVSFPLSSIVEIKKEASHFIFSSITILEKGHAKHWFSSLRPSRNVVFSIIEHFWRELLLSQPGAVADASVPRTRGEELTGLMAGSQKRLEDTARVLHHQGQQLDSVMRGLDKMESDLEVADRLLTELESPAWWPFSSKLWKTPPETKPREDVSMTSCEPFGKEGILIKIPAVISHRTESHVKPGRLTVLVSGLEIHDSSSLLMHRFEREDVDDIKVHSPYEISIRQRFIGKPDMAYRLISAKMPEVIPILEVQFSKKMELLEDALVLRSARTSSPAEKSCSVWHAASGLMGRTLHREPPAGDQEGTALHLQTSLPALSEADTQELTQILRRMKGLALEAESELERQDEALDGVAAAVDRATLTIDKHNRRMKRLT
UniProt Q6PJG6: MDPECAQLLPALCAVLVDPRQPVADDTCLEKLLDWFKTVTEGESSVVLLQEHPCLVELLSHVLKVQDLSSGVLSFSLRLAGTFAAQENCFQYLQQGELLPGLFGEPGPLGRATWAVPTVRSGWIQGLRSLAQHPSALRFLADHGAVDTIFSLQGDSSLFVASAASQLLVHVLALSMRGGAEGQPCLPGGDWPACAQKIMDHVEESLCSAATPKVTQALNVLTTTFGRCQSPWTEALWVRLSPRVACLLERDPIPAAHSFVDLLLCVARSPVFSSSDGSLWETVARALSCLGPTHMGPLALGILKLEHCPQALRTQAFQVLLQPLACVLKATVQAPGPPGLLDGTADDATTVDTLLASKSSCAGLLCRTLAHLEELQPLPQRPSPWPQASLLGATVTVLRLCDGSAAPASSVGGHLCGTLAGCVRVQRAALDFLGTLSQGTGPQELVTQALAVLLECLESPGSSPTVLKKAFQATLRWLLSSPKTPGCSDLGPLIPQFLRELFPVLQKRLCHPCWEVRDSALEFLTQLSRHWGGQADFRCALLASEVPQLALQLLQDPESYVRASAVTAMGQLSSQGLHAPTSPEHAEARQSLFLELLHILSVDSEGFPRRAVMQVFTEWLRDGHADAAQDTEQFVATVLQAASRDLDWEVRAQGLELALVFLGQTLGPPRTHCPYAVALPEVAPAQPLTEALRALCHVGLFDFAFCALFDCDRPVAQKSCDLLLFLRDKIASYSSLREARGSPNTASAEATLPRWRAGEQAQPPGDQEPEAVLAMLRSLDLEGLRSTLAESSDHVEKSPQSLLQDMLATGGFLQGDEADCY
UniProt Q6KC79: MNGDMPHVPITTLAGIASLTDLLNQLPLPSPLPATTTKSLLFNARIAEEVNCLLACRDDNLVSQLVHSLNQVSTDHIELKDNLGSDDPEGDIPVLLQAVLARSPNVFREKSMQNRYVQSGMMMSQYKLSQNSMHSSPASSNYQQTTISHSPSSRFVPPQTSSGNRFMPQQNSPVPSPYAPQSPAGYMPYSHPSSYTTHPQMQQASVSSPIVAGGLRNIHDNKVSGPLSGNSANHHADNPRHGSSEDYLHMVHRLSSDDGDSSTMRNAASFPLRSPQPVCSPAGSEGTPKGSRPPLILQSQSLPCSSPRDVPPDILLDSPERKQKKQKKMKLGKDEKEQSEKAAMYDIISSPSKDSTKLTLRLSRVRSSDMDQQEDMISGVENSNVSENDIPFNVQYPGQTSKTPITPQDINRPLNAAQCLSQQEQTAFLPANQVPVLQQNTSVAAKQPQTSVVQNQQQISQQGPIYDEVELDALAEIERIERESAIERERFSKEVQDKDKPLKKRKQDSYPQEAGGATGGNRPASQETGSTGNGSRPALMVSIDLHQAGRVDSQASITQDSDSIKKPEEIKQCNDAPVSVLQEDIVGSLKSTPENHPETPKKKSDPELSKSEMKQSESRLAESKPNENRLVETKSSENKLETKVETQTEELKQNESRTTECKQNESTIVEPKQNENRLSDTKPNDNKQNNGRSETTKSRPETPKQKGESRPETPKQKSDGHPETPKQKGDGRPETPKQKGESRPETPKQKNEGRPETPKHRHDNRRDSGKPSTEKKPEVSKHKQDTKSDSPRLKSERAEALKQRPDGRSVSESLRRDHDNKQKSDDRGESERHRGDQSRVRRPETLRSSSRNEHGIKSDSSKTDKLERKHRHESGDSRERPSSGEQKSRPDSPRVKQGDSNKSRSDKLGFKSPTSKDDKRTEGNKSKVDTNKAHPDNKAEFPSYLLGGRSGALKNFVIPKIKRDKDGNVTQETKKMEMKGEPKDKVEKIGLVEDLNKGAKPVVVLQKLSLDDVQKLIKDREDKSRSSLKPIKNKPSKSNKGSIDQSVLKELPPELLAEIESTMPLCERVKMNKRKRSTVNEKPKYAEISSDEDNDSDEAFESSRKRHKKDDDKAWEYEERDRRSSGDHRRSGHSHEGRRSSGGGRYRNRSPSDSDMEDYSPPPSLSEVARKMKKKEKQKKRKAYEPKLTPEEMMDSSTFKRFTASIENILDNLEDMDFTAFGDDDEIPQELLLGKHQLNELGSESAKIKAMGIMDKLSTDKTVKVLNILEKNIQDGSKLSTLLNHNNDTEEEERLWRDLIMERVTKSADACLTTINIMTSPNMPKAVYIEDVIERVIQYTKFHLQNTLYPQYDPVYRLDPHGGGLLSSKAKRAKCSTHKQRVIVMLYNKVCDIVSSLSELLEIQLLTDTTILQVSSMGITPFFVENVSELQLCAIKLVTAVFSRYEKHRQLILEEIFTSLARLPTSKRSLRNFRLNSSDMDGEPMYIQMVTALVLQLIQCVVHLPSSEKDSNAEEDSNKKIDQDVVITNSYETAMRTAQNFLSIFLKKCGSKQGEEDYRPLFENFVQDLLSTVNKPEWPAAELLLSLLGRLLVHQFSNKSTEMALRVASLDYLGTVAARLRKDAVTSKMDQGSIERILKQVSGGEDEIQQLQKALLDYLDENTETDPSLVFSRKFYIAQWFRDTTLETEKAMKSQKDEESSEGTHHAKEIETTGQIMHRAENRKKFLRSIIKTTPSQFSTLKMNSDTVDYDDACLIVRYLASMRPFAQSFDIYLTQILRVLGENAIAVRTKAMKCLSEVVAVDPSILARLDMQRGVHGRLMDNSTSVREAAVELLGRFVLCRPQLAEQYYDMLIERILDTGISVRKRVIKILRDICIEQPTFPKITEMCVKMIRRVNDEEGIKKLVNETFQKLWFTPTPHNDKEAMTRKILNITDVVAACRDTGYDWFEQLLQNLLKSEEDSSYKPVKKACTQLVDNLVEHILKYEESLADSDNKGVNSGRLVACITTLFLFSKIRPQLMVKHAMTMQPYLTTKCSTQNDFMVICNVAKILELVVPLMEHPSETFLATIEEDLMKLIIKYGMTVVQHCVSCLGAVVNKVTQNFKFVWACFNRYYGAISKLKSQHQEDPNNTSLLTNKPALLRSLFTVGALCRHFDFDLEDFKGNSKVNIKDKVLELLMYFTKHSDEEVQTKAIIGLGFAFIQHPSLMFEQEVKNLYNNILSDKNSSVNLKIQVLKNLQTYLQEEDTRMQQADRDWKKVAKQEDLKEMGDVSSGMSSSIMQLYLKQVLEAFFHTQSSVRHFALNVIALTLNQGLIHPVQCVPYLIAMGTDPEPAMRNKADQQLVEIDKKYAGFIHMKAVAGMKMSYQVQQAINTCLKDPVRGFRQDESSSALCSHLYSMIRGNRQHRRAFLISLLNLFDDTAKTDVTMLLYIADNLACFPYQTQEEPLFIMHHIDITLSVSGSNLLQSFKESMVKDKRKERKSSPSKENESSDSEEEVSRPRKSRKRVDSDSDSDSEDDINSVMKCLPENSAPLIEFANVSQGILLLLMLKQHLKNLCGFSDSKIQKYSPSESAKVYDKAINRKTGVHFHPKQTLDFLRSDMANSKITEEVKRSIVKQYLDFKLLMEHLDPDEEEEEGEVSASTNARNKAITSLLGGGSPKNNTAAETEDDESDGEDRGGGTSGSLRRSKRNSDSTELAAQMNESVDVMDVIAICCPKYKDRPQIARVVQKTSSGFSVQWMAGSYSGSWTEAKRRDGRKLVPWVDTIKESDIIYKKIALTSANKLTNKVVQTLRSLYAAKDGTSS
UniProt Q6IQ21: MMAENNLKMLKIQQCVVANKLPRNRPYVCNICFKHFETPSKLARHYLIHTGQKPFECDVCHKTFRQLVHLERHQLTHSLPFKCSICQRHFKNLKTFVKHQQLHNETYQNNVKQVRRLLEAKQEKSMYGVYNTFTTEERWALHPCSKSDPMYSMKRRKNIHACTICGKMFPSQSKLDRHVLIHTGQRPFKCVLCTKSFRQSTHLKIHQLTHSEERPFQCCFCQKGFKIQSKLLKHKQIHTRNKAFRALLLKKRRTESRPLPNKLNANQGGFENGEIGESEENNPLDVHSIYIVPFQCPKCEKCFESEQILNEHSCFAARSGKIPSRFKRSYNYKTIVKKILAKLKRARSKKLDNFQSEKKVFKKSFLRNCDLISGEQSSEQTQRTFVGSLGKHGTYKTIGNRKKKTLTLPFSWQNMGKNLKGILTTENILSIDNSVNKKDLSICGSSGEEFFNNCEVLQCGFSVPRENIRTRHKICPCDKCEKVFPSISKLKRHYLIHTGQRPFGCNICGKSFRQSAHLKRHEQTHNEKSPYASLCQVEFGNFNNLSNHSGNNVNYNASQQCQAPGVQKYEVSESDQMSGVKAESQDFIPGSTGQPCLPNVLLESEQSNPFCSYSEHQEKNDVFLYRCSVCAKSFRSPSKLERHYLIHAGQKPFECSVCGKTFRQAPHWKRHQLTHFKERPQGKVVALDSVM
UniProt Q5JTD0: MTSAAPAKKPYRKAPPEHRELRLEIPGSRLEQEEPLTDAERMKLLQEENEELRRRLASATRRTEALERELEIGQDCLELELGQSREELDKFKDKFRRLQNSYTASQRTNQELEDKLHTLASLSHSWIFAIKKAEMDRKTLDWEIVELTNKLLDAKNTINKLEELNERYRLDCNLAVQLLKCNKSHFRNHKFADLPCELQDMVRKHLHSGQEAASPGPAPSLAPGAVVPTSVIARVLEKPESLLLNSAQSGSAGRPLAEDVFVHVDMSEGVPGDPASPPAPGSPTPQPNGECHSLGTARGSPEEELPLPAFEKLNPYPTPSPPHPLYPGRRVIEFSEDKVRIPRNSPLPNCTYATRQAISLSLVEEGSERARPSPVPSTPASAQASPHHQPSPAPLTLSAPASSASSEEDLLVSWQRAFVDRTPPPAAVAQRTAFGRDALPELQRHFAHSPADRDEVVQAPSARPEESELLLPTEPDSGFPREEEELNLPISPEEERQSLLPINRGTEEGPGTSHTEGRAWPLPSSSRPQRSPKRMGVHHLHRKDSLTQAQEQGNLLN

compound: COC(=O)C#Cc1ccccc1 [methyl 3-phenylpropiolate]; assay: log2 ratio of iodoacetamide-alkyne labeling of the cysteine site, DMSO over compound (competition); higher = stronger covalent engagement of the cysteine by the compound, active = 1 or more; details: 500 µM; treatment time 1 h; system: HEK293T cell lysate
In short: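 HEK293T lysate (2 mg/mL) was treated with DMSO or electrophile (500 µM, 1 h, ambient temperature), then iodoacetamide alkyne (1 h), clicked to sCIP-TMT reagents, pooled, trypsin-digested overnight at 37 °C, streptavidin-enriched and acid-eluted. Peptides were run on Orbitrap Eclipse LC-MS/MS with FAIMS and quantified in FragPipe. The log2 competition ratio per cysteine is mean control-channel over mean compound-channel reporter intensity. Duplicate channels and three replicates were used, and cysteines quantified in only one replicate were excluded.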

log2 ratio of iodoacetamide-alkyne labeling, inactive:
DNAJC21 C444 (UniProt Q5F1R6) 0.145
SHQ1 C572 (UniProt Q6PI26) 0.26
RBM20 C1099 (UniProt Q5T481) 0.169
NHSL1 C729 (UniProt Q5SYE7) 0.695
CAMSAP1 C848 (UniProt Q5T5Y3) 0.391
SNAP47 C369 (UniProt Q5SQN1) 0.693
BCOR C1044 (UniProt Q6W2J9) 0.458
UniProt Q6PJG6_C487 0.394
SPECC1 C493 (UniProt Q5M775) 0.129
UniProt Q6ZS17_C1137 0.0366
LARP1 C502 (UniProt Q6PKG0) 0.269
NIPBL C304 (UniProt Q6KC79) 0.612
ZNF770 C369 (UniProt Q6IQ21) 0.619
AAGAB C203 (UniProt Q6PD74) 0.0796
MIA3 C1486 (UniProt Q5JRA6) 0.142
TJAP1 C76 (UniProt Q5JTD0) 0.625

Reprinted at random: 2 records from the list
log2 ratio of iodoacetamide-alkyne labeling, inactive:
LARP1 C502 (UniProt Q6PKG0) 0.269
CAMSAP1 C848 (UniProt Q5T5Y3) 0.391
